The values that follow come from PubChem BioAssay AID662 (National Center for Advancing Translational Sciences (NCATS), 2007).

The list shows a part of the results. Further columns of the screen follow, without active or inactive calls. Compounds called inactive in the main read-out are mostly missing here. The note in brackets gives the kind of curve behind each potency; many fits are weak.

For orientation: AC50 means the concentration giving half of the maximal activity seen.

This test in a line: Cell signaling CRE-BLA (Fsk stim). The following applies: CHO CRE-bla reporter (cAMP response element driving beta-lactamase), forskolin EC10, beta-lactamase ratio; measured here: 460 nm blue channel. Summed up:
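CRE-bla CHO cells stimulated with EC10 NKH 477 (water-soluble forskolin) and compound titrations, 3 h at 37C; beta-lactamase read with CCF4 after 2 h at room temperature. Activity from 460/530 nm emission ratio, AC50 values for positive or negative modulation.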
In the case of `C#CCNc1nc(C)nc2c1nnn2Cc1ccccc1F`, the AC50 is 10 µM [rising, partial curve]. The same measure for `Cc1ccnc(NC(=O)CCc2c(C)nc3ncnn3c2C)c1`: 1.26 µM [falling, partial curve, poor fit]. For `Cc1cc(C)c2c(n1)sc1c(N3CCOCC3)ncnc12` the value was 20 µM [falling, single point]; for `O=C(CN1C(=O)CCC1=O)Nc1nc(-c2ccc(Cl)s2)cs1`, 15.8 µM [rising, partial curve].

Take `CCOc1ccc(NS(=O)(=O)c2ccc3[nH]cc(C(=O)NCC4CCCO4)c(=O)c3c2)cc1` (configuration not stated): the AC50 is 0.00398 µM [falling, full curve, poor fit]. As to `N#CCCn1c(=O)c(-c2cc(F)cc(F)c2)nc2cnc(Oc3ccccc3)nc21`, the AC50 was 15.8 µM [rising, partial curve]. For `Cc1ccc(Cn2c(=S)[nH]c3ccc(N4CCOCC4)cc3c2=O)o1` the value was 3.98 µM [falling, partial curve, poor fit].

In the case of `COc1cccc(Cn2c(=O)c(-c3cccc(Cl)c3)nc3cncnc32)c1`, the AC50 was 7.94 µM [rising, partial curve]. The same measure for `CCn1cc(C(=O)O)c(=O)c2cnc(N3CCN(C(=O)Nc4cccc5ccccc45)CC3)nc21`: 25.1 µM [rising, single point]; for `C=CCSc1nc2c(c(=O)[nH]c(=O)n2C)n1C/C=C(/C)Cl`: 12.6 µM [rising, partial curve]. As for `Cc1nnc2n1N=CC=C(C(C)(C)C)S2`, the half-maximal activity concentration (AC50) was 10 µM [falling, single point].

For `CNC(=O)c1c(NC(=O)c2ccc(S(=O)(=O)N3CCOCC3)cc2)sc2c1CCC2`, the AC50 was 7.94 µM [rising, partial curve]. Take `Cc1occc1C(=O)n1nnc2ccccc21`: the AC50 is 6.31 µM [falling, partial curve, poor fit]. For `COCCCn1c(=N)c(C(=O)NCC2CCCO2)cc2c(=O)n3ccccc3nc21` (configuration not stated) the value was 15.8 µM [rising, partial curve]. For `O=C(CCc1nc2ccccc2[nH]c1=O)OCC(=O)N1CCc2ccccc21` the value was 25.1 µM [rising, single point]; for `COc1ccc(CNc2cc(-c3ccccc3C)ncn2)c(OC)c1`, 6.31 µM [rising, partial curve]; for `CCC(=O)N/C=C/n1cnc2cc(C(F)(F)F)ccc21`, 5.01 µM [falling, single point]. Regarding `CCCn1nnc2sc3c(c2c1=O)CCC(C)C3` (configuration not stated), the AC50 was 10 µM [rising, single point].

Take `CCOC(=O)N1CCN(C(=O)CN(C)S(=O)(=O)c2ccc(OC)c(OC)c2)CC1`: the AC50 is 25.1 µM [rising, single point]. The same measure for `CC(C)(C)OC(=O)N[C@@H](Cc1ccccc1)c1nnc(S(=O)(=O)Cc2cccc(F)c2)o1`: 5.01 µM [falling, partial curve]; for `COc1ccccc1C1=NOC(Cn2c(=O)c3c(ncn3C)n(C)c2=O)C1` (configuration not stated): 0.316 µM [falling, partial curve]; for `CCN(c1c(C)n(C)n(-c2ccccc2)c1=O)S(C)(=O)=O`: 25.1 µM [falling, single point].

In the case of `CN(CC(=O)N1CCN(c2ccccn2)CC1)S(=O)(=O)c1ccc2ccccc2c1`, the AC50 was 25.1 µM [falling, single point]. Turning to `CCCCC(=O)Nc1nn(CCC)c2nc3ccccc3cc12`, the AC50 is 15.8 µM [rising, partial curve]. On to `Fc1ccc2nc3[nH]c4ccccc4c3nc2c1`, for which the half-maximal activity concentration (AC50) was 7.94 µM [rising, partial curve]. For `COc1ccccc1OCc1ccc(C(=O)n2nc(C)c(Cl)c2C)o1` the value was 15.8 µM [rising, single point]; for `Cc1ccc2nc3c(cc(C#N)c(=O)n3-c3nccs3)c(=O)n2c1`, 5.01 µM [rising, partial curve]. For `COc1cc(C(=O)N2CCCC(c3nc(-c4cccs4)no3)C2)cc(OC)c1OC` (configuration not stated) the value was 2.51 µM [rising, single point]; for `COc1cc(CC(=O)OC2CCOC2=O)cc(OC)c1OC` (configuration not stated), 3.16 µM [rising, single point]. The same measure for `COc1ccc(OC)c(NC(=O)CSc2nnc(CCCO)n2-c2ccccc2)c1`: 12.6 µM [rising, single point]. With `CCOC(=O)CSc1nc2sc(C)c(C)c2c(=O)n1C`, the AC50 was 12.6 µM [rising, single point]. The same measure for `CC(C)Cn1c(SCC(=O)NC2CCCc3ccccc32)nc(O)cc1=O` (configuration not stated): 2 µM [falling, partial curve]; for `CCOC(=O)c1c(NC(=O)c2cccs2)sc(C)c1C`: 6.31 µM [rising, partial curve]; for `CCOC(=O)c1ccccc1NC(=O)CSc1nnc(Cc2cccn2C)n1-c1ccc(C)cc1`: 10 µM [falling, single point]. The same measure for `Cc1noc(C)c1COC(=O)c1cc(=O)[nH]c2ccccc12`: 12.6 µM [rising, single point]. The same measure for `COc1ccc(N(CC(=O)NCc2ccccc2)S(=O)(=O)c2c(C)noc2C)cc1`: 5.01 µM [rising, single point].

With `COc1ccc(-c2nc(C#N)c(NCc3ccc(F)cc3)o2)cc1OC`, the AC50 was 2.51 µM [rising, full curve]. For `CCOc1ccc(-c2cc3nc(C4CCN(C(=O)OC(C)(C)C)CC4)c(C(=O)O)cn3n2)cc1` the value was 12.6 µM [rising, partial curve]; for `Cc1ccc(S(=O)(=O)N2CCN(C(=O)CSc3nc4ccccc4c(=O)[nH]3)CC2)c(C)c1`, 25.1 µM [rising, single point]. The same measure for `CN(C)S(=O)(=O)c1cccc(-c2cn3ccccc3n2)c1`: 10 µM [rising, partial curve]; for `N#CC1=C2SCC(O)(c3ccccc3)N2C(=O)CC1c1cccs1` (configuration not stated): 12.6 µM [rising, partial curve, poor fit]. For `Cc1cc(Nc2ccccc2F)n2ncnc2n1` the value was 10 µM [rising, single point]. Turning to `COc1ccccc1NC(=O)c1c(NC(=O)c2ccco2)sc2c1CCC2`, the AC50 was 2.51 µM [rising, full curve]. For `C=CCNc1nc2c(c(=O)[nH]c(=O)n2C)n1CCCCC` the value was 10 µM [rising, partial curve]; for `CCc1cccc(C)c1NC(=O)C1C2CCC(O2)C1C(=O)O` (configuration not stated), 0.1 µM [falling, full curve, poor fit]; for `CN1CCN(C(=O)c2cccc(COc3cc(Cl)ccc3Cl)c2)CC1`, 12.6 µM [rising, partial curve]. The same measure for `CCOc1ccc(N2C(=O)CC(Sc3nc(C)cc(C)n3)C2=O)cc1` (configuration not stated): 1 µM [rising, partial curve, poor fit]; for `CN(Cc1ccco1)c1cc(-c2ccccc2Cl)ncn1`: 12.6 µM [rising, partial curve]. The same measure for `Cc1nnc(C)n1/N=C/c1ccc2c(c1)OCCO2`: 3.98 µM [falling, single point]; for `Cn1c(=O)c2c(nc(CN3CCN(Cc4ccccc4)CC3)n2Cc2ccc(F)cc2)n(C)c1=O`: 6.31 µM [rising, partial curve]; for `O=C(CCC(=O)N1CCc2ccccc21)N1CCc2ccccc21`: 0.01 µM [falling, partial curve, poor fit]. In the case of `CC1CCCCN1C(=O)Cn1c(=O)n(C2CCCCC2)c(=O)c2ccccc21` (configuration not stated), the AC50 is 25.1 µM [rising, single point]. For `CC(=O)c1nnn(-c2nc(N)nc(N(c3ccccc3)c3ccccc3)n2)c1C`, the AC50 was 15.8 µM [rising, single point]. For `Cc1cc(Nc2ccc(C)c(C)c2)n2nc(C)nc2n1` the value was 5.01 µM [rising, partial curve]; for `CCOC(=O)Cn1c(=NC(=O)CSC(C)=O)sc2ccccc21`, 15.8 µM [falling, single point]. The same measure for `COc1ncc2nc(-c3ccc(Cl)cc3)c(=O)n(Cc3cccs3)c2n1`: 12.6 µM [rising, partial curve].

Consider `CCCN(CCC)C1CC(=O)N(Cc2ccccc2)C1=O` (configuration not stated), for which the AC50 was 0.126 µM [falling, full curve, poor fit]. With `Cc1ccc(Cn2ncc3c(N4CCCC4)ncnc32)cc1`, the AC50 was 7.94 µM [rising, partial curve]. For `CCOC(=O)N1CCN(C(=O)c2ccc3c(=O)n(Cc4ccc(OC)cc4)c(=S)[nH]c3c2)CC1` the value was 0.501 µM [falling, partial curve]; for `COc1ccc(OC)c(-c2cc(C(=O)Nc3c(C)nn(Cc4ccc(Cl)cc4)c3C)no2)c1`, 2.51 µM [rising, full curve]; for `O=C1CCCC2=C1C(c1cccc(Br)c1)n1nc(-c3ccco3)nc1N2` (configuration not stated), 10 µM [rising, single point]. On to `Cc1nc(NC(=O)c2ccccc2)sc1-c1csc(NCc2ccco2)n1`, for which the AC50 was 2 µM [falling, partial curve].

As to `Cn1c2ccc(Cl)cc2c2nc3ccccc3nc21`, the AC50 is 5.01 µM [rising, partial curve]. The same measure for `C=CCn1cc(C(=O)NCCCOCC)c(=O)c2cc(S(=O)(=O)N(CC)CC)ccc21`: 20 µM [rising, single point]. For `COCCn1c(=O)c(-c2cccc(Cl)c2)nc2cncnc21`, the AC50 is 25.1 µM [rising, single point]. For `Cc1ccc(CNC(=O)c2cc3c(=O)n4cccc(C)c4nc3n(CC3CCCO3)c2=N)cc1` (configuration not stated) the value was 20 µM [rising, single point]; for `COc1ccc(-c2nc(CSCC(=O)N3CCN(c4cccc(C)c4)C(C)C3)c(C)o2)cc1OC` (configuration not stated), 2.51 µM [rising, partial curve].
